The other results are listed elsewhere or left out.
Key:
Experiment in all cases: log2 fold change, soluble protein after heating vs DMSO (PISA); higher = thermal stabilisation; K562 lysate, 10 uM; active = over 0.2 and 3.5 SD of the protein, either way, in both replicates (recomputed)
[1] = compound: CC(C)C1=C2N=C(C=C(N2N=C1)NCC3=CC=CC=C3)NCCCCCCN
In short: (§1)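 Soluble protein was defined as the supernatant remaining after 21,000xg for 90 min, following pooling of heated aliquots and adjustment to 0.5% NP-40 at 4°C. Before that, crude K562 extract at 1 mg/mL protein in PBS pH 7.4 with 1 mM MgCl2 was treated with 10 μM compound for 30 min and heated for 3 min across 48°C-58°C. Quantification used TMTpro 16plex LC-MS/MS with channel sums equalised, and values are log-two fold changes in thermal stability relative to solvent controls from duplicates.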

By UniProt entry, the sequences of proteins in these tests, tags left out. Where a name states a change or a piece, a line headed by the entry shows the natural chain unless it says otherwise.
UniProt Q8N3U4: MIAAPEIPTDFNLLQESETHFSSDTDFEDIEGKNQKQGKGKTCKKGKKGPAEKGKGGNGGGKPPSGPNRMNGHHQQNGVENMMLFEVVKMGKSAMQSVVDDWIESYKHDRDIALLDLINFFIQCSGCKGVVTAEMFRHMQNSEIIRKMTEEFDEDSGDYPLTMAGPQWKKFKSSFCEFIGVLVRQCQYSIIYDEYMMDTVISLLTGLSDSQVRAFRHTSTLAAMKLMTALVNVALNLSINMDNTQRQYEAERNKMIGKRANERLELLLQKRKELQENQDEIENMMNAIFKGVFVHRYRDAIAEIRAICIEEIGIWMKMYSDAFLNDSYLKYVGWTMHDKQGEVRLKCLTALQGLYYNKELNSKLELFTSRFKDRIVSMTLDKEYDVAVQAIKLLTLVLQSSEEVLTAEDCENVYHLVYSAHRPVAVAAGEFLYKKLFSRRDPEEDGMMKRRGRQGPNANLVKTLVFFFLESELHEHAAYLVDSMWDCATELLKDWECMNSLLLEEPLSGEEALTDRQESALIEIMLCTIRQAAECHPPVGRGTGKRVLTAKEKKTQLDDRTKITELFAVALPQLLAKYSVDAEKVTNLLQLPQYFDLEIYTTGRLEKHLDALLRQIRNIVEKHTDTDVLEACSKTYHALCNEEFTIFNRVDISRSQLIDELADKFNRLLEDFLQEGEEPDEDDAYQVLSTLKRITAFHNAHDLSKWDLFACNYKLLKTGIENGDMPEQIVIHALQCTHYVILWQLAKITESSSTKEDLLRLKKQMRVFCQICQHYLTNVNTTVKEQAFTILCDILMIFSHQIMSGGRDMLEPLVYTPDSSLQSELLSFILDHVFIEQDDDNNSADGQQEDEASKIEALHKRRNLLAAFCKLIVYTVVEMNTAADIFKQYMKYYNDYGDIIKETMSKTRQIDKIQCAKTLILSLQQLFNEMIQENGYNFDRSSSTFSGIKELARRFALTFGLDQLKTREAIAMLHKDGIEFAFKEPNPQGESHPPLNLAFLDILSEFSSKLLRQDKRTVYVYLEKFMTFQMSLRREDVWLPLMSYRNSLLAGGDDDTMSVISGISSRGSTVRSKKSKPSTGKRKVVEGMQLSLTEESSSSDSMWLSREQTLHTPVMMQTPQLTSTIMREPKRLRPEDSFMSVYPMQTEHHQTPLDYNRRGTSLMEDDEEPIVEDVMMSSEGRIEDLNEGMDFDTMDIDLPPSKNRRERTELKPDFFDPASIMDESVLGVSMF
UniProt Q76I76: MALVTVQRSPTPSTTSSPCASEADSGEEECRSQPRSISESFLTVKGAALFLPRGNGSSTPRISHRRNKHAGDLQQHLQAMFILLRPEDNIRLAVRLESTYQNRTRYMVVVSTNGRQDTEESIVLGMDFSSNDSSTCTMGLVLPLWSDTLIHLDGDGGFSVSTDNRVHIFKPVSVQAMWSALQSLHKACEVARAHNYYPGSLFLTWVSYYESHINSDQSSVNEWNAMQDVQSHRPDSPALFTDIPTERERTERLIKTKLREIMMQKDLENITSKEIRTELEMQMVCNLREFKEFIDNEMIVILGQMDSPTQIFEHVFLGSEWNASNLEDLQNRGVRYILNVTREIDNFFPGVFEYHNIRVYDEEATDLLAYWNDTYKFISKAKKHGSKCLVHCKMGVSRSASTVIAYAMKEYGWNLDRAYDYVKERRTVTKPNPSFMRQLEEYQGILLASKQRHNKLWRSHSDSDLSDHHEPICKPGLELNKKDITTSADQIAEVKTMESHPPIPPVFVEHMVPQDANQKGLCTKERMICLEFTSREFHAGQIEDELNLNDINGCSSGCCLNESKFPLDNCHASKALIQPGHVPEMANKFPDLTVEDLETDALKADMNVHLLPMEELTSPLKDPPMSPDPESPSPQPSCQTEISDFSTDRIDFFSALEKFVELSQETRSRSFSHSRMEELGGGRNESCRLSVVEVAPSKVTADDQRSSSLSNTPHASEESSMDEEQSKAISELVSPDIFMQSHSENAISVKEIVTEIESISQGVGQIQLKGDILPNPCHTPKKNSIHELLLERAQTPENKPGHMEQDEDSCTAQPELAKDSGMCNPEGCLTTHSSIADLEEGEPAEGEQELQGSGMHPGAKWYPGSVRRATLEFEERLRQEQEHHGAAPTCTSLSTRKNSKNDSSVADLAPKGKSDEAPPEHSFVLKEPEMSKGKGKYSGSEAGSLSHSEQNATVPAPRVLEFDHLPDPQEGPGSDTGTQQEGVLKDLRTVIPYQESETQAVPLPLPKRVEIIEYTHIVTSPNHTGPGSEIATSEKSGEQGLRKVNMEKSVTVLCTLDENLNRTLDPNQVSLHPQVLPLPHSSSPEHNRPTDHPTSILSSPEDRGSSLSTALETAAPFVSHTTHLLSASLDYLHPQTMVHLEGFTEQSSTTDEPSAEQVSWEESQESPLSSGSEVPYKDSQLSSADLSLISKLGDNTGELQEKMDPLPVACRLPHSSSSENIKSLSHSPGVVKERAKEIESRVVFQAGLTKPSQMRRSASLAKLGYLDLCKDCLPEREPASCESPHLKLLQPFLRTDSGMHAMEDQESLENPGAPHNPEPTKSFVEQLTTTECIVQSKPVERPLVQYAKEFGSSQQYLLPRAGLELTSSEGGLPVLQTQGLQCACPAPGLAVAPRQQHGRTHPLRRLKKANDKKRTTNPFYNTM
UniProt Q8IZP2: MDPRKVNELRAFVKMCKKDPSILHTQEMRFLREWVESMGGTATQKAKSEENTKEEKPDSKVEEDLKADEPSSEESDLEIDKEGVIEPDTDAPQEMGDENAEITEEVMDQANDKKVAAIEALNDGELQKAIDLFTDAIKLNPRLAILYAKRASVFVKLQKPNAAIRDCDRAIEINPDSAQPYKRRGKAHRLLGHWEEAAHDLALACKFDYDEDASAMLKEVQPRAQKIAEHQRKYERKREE
UniProt Q9NY15: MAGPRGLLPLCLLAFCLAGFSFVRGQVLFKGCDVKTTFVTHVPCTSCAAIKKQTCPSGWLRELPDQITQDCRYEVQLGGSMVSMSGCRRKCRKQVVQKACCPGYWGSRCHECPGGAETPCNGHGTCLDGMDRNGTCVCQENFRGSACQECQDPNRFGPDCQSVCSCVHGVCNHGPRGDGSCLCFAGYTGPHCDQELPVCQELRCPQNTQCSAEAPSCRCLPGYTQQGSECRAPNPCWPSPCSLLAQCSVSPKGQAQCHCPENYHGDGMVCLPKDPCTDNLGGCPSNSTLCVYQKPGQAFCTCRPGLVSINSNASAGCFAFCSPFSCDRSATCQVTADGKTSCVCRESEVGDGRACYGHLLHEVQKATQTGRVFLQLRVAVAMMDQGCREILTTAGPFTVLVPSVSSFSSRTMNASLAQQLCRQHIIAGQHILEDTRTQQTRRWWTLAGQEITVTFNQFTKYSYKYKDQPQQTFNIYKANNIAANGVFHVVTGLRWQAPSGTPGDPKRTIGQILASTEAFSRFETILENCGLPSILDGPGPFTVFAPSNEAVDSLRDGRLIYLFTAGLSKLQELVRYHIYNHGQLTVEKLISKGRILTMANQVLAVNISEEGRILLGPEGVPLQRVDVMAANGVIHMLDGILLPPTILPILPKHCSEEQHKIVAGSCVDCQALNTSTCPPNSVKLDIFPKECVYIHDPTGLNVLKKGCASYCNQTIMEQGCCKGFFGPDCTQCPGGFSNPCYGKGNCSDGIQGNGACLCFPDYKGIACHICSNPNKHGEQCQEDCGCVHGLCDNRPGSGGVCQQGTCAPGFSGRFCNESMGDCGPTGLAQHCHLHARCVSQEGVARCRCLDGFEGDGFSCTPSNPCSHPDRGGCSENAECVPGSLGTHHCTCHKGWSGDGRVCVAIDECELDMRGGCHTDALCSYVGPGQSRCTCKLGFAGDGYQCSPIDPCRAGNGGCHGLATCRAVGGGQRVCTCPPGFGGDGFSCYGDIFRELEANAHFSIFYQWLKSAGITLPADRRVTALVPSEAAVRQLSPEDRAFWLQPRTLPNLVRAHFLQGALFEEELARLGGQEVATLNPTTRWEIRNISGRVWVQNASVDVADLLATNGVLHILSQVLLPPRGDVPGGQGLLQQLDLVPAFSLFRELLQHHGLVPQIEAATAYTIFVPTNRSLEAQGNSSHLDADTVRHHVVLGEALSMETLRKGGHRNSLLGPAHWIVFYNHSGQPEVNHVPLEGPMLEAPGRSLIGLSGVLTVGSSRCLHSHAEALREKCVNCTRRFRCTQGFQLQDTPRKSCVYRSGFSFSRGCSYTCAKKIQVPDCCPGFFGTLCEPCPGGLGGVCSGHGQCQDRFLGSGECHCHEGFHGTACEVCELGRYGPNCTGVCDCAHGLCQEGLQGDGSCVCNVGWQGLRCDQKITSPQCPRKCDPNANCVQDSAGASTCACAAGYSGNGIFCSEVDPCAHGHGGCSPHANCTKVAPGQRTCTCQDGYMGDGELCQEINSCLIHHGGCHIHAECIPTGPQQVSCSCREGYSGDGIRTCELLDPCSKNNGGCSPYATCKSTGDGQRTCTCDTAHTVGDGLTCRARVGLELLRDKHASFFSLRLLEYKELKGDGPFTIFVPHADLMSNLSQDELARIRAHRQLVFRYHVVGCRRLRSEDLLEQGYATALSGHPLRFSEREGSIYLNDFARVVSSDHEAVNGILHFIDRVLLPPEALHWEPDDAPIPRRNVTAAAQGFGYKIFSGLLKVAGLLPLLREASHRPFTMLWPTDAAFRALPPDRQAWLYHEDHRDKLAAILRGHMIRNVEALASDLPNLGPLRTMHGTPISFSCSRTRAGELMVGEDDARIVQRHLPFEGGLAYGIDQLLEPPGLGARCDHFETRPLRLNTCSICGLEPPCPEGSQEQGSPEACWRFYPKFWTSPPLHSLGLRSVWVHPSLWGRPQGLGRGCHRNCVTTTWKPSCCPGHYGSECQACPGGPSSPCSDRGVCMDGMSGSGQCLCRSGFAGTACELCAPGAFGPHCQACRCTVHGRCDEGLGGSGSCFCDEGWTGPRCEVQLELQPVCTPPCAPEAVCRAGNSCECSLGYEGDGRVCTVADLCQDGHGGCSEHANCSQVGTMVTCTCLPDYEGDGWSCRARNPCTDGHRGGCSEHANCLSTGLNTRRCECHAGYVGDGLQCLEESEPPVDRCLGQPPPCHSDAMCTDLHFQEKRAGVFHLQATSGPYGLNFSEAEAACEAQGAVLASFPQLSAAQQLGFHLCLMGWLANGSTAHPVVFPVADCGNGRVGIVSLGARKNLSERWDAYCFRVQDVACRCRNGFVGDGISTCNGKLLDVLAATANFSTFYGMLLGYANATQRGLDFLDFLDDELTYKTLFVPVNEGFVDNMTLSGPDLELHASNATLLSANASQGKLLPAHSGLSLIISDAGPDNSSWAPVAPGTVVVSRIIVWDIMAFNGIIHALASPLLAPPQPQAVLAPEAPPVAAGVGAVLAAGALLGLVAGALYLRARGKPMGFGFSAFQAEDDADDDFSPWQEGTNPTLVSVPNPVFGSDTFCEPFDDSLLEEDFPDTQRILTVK
UniProt Q9ULZ2: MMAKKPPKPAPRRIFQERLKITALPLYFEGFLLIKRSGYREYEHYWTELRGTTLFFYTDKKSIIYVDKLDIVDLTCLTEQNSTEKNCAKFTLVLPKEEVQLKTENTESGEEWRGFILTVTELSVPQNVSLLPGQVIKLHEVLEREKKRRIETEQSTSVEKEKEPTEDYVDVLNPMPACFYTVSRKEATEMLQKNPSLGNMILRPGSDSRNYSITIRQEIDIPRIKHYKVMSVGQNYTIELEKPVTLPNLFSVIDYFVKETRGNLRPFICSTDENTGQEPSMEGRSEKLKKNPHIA
UniProt O76061, whole entry, looked up: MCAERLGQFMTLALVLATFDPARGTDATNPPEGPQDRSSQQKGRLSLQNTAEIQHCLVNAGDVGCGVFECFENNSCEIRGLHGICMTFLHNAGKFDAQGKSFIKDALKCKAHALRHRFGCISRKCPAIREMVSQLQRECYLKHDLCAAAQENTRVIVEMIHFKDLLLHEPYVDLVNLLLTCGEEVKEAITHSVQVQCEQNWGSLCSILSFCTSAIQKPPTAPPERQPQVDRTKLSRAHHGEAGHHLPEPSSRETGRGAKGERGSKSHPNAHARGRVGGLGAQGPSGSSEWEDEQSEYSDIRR
UniProt Q7Z698: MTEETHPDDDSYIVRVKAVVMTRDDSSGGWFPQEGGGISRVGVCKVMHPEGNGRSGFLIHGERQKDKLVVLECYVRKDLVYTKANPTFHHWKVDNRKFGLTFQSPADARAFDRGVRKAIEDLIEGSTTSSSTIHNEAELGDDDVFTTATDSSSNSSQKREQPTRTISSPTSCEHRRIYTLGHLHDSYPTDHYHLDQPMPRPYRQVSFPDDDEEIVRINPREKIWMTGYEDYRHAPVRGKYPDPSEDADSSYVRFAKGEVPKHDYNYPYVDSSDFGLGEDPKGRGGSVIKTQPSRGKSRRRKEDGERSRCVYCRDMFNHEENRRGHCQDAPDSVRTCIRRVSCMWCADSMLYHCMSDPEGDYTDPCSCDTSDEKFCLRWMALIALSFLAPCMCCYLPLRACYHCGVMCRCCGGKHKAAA

[2] = compound: CC1=C(C(CC(=O)N1)C2=CC=C(C=C2)C(F)(F)F)C(=O)NC3=C(C=C4C(=C3)C=NN4)F
In short: as §1

vemurafenib = compound: CCCS(=O)(=O)Nc1ccc(F)c(C(=O)c2c[nH]c3ncc(-c4ccc(Cl)cc4)cc23)c1F [vemurafenib]
In short: as §1

[3] = compound: CC[C@@H]1C(=O)N(C)c2cnc(Nc3ccc(C(=O)NC4CCN(C)CC4)cc3OC)nc2N1C1CCCC1
In short: as §1

ralimetinib = compound: CC(C)(C)Cn1c(N)nc2ccc(-c3[nH]c(C(C)(C)C)nc3-c3ccc(F)cc3)nc21 [ralimetinib]
In short: as §1

[4] = compound: CC(C)(O)CC(=O)NCCn1ccc2ncnc(Nc3ccc(Oc4cccc(C(F)(F)F)c4)c(Cl)c3)c21
In short: as §1

[5] = compound: CC1=C(C2=C(C=C1)C(=O)C3=CC=CC=C3N2CCCN)C
In short: as §1

[6] = compound: CC1=C(C=C(C=C1)NC(=O)C2=CC(=CC=C2)C(C)(C)C#N)NC3=CC4=C(C=C3)N=CN(C4=O)C
In short: as §1

[7] = compound: CC1=C(C=C(C=C1)NC(=O)C2=CC(=CC=C2)N(C)C)NC(=O)C3=CC=C(C=C3)O
In short: as §1

[8] = compound: CCn1c(C(=O)N(C2CC2)C2CC2)cc2c3c(ncn3C)c(Nc3cc(C)n(C)n3)nc21
In short: as §1

[9] = compound: CCn1cc(-c2ccnc3[nH]c(-c4cccc(CN(C)C)c4)cc23)c(-c2ccc(NC(=O)N(C)C)cc2)n1
In short: as §1

[10] = compound: CN1CCC(CNc2ccc3ncc(-c4cccc(OC(F)(F)F)c4)n3n2)CC1
In short: as §1

saracatinib = compound: CN1CCN(CCOc2cc(OC3CCOCC3)c3c(Nc4c(Cl)ccc5c4OCO5)ncnc3c2)CC1 [saracatinib]
In short: as §1

sotrastaurin = compound: CN1CCN(c2nc(C3=C(c4c[nH]c5ccccc45)C(=O)NC3=O)c3ccccc3n2)CC1 [sotrastaurin]
In short: as §1

[11] = compound: CC(=O)c1cnc2ccc(-c3cc(Cl)c(O)c(Cl)c3)nc2c1N[C@H]1CC[C@H](CN(C)C)CC1
In short: as §1

[12] = compound: CC1=CC=C(C=C1)SC2=C3C=C(SC3=CN=C2)C(=O)N
In short: as §1

[13] = compound: CCCS(=O)(=O)Nc1ccc(F)c(C(=O)c2c[nH]c3ncc(Cl)cc23)c1F
In short: as §1

barasertib = compound: CCN(CCCOc1ccc2c(Nc3cc(CC(=O)Nc4cccc(F)c4)[nH]n3)ncnc2c1)CCOP(=O)(O)O [barasertib]
In short: as §1

volasertib = compound: CC[C@@H]1C(=O)N(C)c2cnc(Nc3ccc(C(=O)N[C@H]4CC[C@H](N5CCN(CC6CC6)CC5)CC4)cc3OC)nc2N1C(C)C [volasertib]
In short: as §1

ibrutinib = compound: C=CC(=O)N1CCC[C@@H](n2nc(-c3ccc(Oc4ccccc4)cc3)c3c(N)ncnc32)C1 [ibrutinib]
In short: as §1

Measured: log2 fold change

SPICE1 (UniProt Q8N0Z3)
inactive: [1] 0.113 | [2] -0.332 | vemurafenib -0.099 | [3] -0.119

STAR (UniProt P49675)
inactive: ralimetinib -0.139 | [4] 0.02 | [1] 0.073 | [2] -0.027 | [5] -0.052 | [6] -0.049 | [7] -0.039 | vemurafenib 0.02 | [3] 0.074 | [8] 0.008 | [9] 0.043 | [10] -0.03 | saracatinib 0.006 | sotrastaurin 0.061

SRC isoform 2 (UniProt P12931)
inactive: [11] -0.061 | ralimetinib -0.035 | [4] 0.075 | [1] 0.052 | [5] 0.07 | [7] 0.042 | [12] 0 | [13] 0.166 | barasertib 0.133 | [3] 0.045 | volasertib -0.039 | [8] -0.024 | [9] 0.184 | [10] -0.121

SRRD (UniProt Q9UH36)
inactive: ralimetinib -0.051 | [4] 0.078 | [5] 0.062 | [6] 0.05 | [7] -0.447 | [8] -0.216 | [9] -0.057 | [10] -0.042 | saracatinib -0.244 | sotrastaurin -0.004

STAM (UniProt A6NMU3)
inactive: [11] -0.011 | ralimetinib -0.026 | [4] -0.006 | [1] -0.003 | [5] 0.122 | [6] 0.011 | [7] -0.009 | [12] -0.08 | vemurafenib 0.126 | [13] -0.012 | [3] 0.036 | volasertib -0.006 | [8] -0.106 | saracatinib -0.08 | sotrastaurin -0.057

SPRTN (UniProt Q9H040)
inactive: ralimetinib 0.001 | [4] -0.073 | [5] 0.032 | [7] 0.067 | vemurafenib 0.046 | [3] 0.068 | [8] 0.243 | saracatinib -0.117

Quoted from the entries so far (two entries):
SRRD (UniProt Q9UH36)
inactive: ralimetinib -0.051 | [4] 0.078 | [5] 0.062 | [6] 0.05 | [7] -0.447 | [8] -0.216 | [9] -0.057 | [10] -0.042 | saracatinib -0.244 | sotrastaurin -0.004

STAM (UniProt A6NMU3)
inactive: [11] -0.011 | ralimetinib -0.026 | [4] -0.006 | [1] -0.003 | [5] 0.122 | [6] 0.011 | [7] -0.009 | [12] -0.08 | vemurafenib 0.126 | [13] -0.012 | [3] 0.036 | volasertib -0.006 | [8] -0.106 | saracatinib -0.08 | sotrastaurin -0.057

More records:

STAG2 (UniProt Q8N3U4)
inactive: [11] -0.02 | ralimetinib 0.016 | [4] -0.116 | [1] 0.042 | [6] 0.021 | [7] -0.064 | [12] 0.002 | [13] 0.107 | [3] 0.126 | volasertib 0.087 | [8] -0.036 | [9] -0.032 | [10] -0.005 | sotrastaurin -0.192

SSH2 (UniProt Q76I76)
inactive: [11] 0.13 | ralimetinib 0.126 | [4] -0.001 | [1] -0.068 | [5] 0.038 | [6] 0.075 | [7] 0.004 | [12] 0.031 | vemurafenib 0 | [13] 0.17 | [3] -0.107 | volasertib -0.065 | [8] -0.063 | [9] 0.02 | [10] -0.14 | saracatinib -0.028 | sotrastaurin 0.067

SPTBN1 isoform 3 (UniProt Q01082)
inactive: [11] -0.248 | ralimetinib 0.056 | [4] -0.023 | [1] 0.13 | [2] 0.021 | [5] -0.101 | [6] 0.024 | [7] 0.103 | [12] -0.095 | [13] -0.073 | [3] 0.133 | volasertib -0.046 | [8] -0.035 | saracatinib -0.017 | sotrastaurin -0.196

SSX1 (UniProt Q16384)
inactive: ralimetinib 0.047 | [4] -0.038 | [1] -0.202 | [5] 0.106 | [6] 0.054 | [7] 0.308 | vemurafenib -0.298 | [3] -0.057 | [8] -0.096 | [9] 0.387 | [10] -0.247 | saracatinib -0.191 | sotrastaurin -0.044

ST13P4 (UniProt Q8IZP2)
inactive: ralimetinib 0.091 | [4] -0.099 | [1] -0.07 | [7] 0.042 | vemurafenib 0.07 | [8] -0.059

STARD9 (UniProt Q9P2P6)
inactive: [11] 0.033 | ralimetinib 0.11 | [4] -0.144 | [1] 0.05 | [2] 0.031 | [5] 0.014 | [6] 0.051 | [7] 0.015 | [12] -0.054 | vemurafenib 0.067 | [13] 0.056 | [3] -0.094 | volasertib -0.063 | [8] 0.151 | [9] 0.012 | [10] -0.075 | saracatinib 0.038 | sotrastaurin 0.012

SRCIN1 (UniProt Q9C0H9)
inactive: [11] -0.105 | ralimetinib 0.011 | [4] -0.172 | [1] -0.053 | [2] -0.074 | [7] 0.018 | [12] 0.007 | [13] 0.052 | [3] 0.026 | volasertib -0.043 | [8] -0.086 | [9] -0.014 | [10] -0.028

SPOUT1 (UniProt Q5T280)
inactive: [11] -0.052 | ralimetinib 0.03 | [4] -0.032 | [1] 0.074 | [2] -0.045 | [5] -0.023 | [7] 0.092 | [12] 0.029 | vemurafenib 0.077 | [13] -0.006 | [3] 0.089 | volasertib -0.009 | [8] -0.015 | saracatinib 0.015

STAB1 (UniProt Q9NY15)
inactive: [11] 0.215 | ralimetinib -0.072 | [4] -0.184 | [1] 0.058 | [6] 0.203 | [7] -0.13 | [12] -0.064 | [13] 0.052 | volasertib -0.062 | [8] -0.321 | sotrastaurin 0.029

STARD4 (UniProt Q96DR4)
inactive: [3] 0.029 | [9] -0.05 | [10] -0.045

STAP1 (UniProt Q9ULZ2)
inactive: [1] -0.056 | [2] -0.201 | [5] -0.121 | saracatinib 0.082

STAT1 isoform 2 (UniProt P42224)
inactive: [2] 0.035 | [6] -0.005 | sotrastaurin 0.11

SSBP2 (UniProt P81877)
inactive: ralimetinib -0.081 | [4] -0.275 | [1] 0.047 | [5] -0.095 | [6] 0.128 | [7] 0.045 | vemurafenib 0 | [3] 0.141 | [8] -0.343 | [9] 0.122 | [10] -0.204 | saracatinib -0.017 | sotrastaurin 0.143

STC2 (UniProt O76061)
inactive: [11] 0.219 | ralimetinib -0.049 | [4] 0.016 | [1] -0.015 | [2] -0.016 | [5] -0.075 | [6] -0.024 | [7] 0.041 | [12] -0.022 | vemurafenib 0.055 | [13] -0.247 | [3] 0.019 | volasertib -0.057 | [8] 0.094 | [9] 0.089 | [10] -0.02 | saracatinib -0.092 | sotrastaurin -0.038

SPRED2 (UniProt Q7Z698)
inactive: ibrutinib 0.047 | [2] -0.041 | barasertib 0.005

SS18 (UniProt Q15532)
inactive: [11] -0.098 | ralimetinib 0.025 | [4] -0.035 | [1] -0.012 | [2] -0.125 | [5] -0.061 | [6] 0.117 | [7] -0.022 | [12] 0.077 | vemurafenib -0.04 | [13] -0.024 | [3] -0.102 | volasertib 0.143 | [8] 0.021 | [9] -0.075 | [10] -0.224 | saracatinib 0.052 | sotrastaurin -0.036
